# In paper PMC12431657, “Discovery and mechanistic insights of dibenzoylmethane as a broad spectrum inhibitor of coronavirus” (PLOS Pathogens, 2025):
# Structures can show the parent of a compound that is named as a salt. Where two headings read alike, the source gives them in different places. The campaign covered roughly 3,300 compounds. About 95 (3%) showed an effect of 50% or more. The list shows a part of the results.
# System: HCoV-229E
# Design: species or system Huh-7; HTS, protection from HCoV-229E induced cell death, luminescent cell viability (CellCounting-Lite 2.0), inhibition rate
# Settings: 24 h post infection, 1 h compound pre-incubation, 10 µM, inhibitor
SMILES,229E Inhibition rate,"229E Inhibition rate (229E Inhibition rate, 24 h)"
C[C@@]12C[C@@]3(O)O[C@@H](O1)[C@]1(COC(=O)c4ccc(O)cc4)[C@H]3C[C@@]12O[C@@H]1O[C@H](CO)[C@@H](O)[C@H](O)[C@H]1O [Oxypaeoniflorin],40.9%,
C[C@H](CC[C@@H](O)C(C)(C)O)[C@H]1CC[C@@]2(C)[C@@H]3CC=C4[C@@H](CC[C@H](O)C4(C)C)[C@]3(C)[C@H](O)C[C@]12C [Mogrol],3.6%,
C[C@H](CC[C@@H](O[C@@H]1O[C@H](CO)[C@@H](O)[C@H](O)[C@H]1O[C@@H]1O[C@H](CO)[C@@H](O)[C@H](O)[C@H]1O)C(C)(C)O)[C@H]1CC[C@@]2(C)[C@@H]3CC=C4[C@@H](CC[C@H](O)C4(C)C)[C@]3(C)[C@H](O)C[C@]12C [Mogroside II-A],10%,
N[C@@H](Cc1c[nH]cn1)C(=O)O [L-Histidine],,10%
CC(C)[C@H](C)[C@@H](O)[C@H](O)[C@@H](C)[C@H]1CC[C@H]2[C@@H]3COC(=O)[C@H]4C[C@H](O)[C@H](O)C[C@]4(C)[C@H]3CC[C@]12C [Brassinolide],13.9%,
COc1ccc(-c2cc(=O)c3c(O)c(OC)c(OC)cc3o2)cc1 [Salvigenin],21.5%,
CC1(C)[C@@H](O[C@H]2O[C@H](C(=O)O)[C@@H](O)[C@H](O)[C@H]2O[C@@H]2O[C@H](C(=O)O)[C@@H](O)[C@H](O)[C@H]2O)CC[C@]2(C)[C@H]3C(=O)C=C4[C@@H]5C[C@@](C)(C(=O)O)CC[C@]5(C)CC[C@@]4(C)[C@]3(C)CC[C@@H]12 [Ammonium glycyrrhizinate],,1.4%
COc1cc2c(cc1OC)C1=Cc3ccc(OC)c(OC)c3CN1CC2 [Dihydropalmatine],8.1%,
O=C(O)CO [Glycolic acid],18.6%,
O=c1c(O[C@@H]2O[C@H](CO)[C@@H](O)[C@H](O)[C@H]2O)c(-c2ccc(O)c(O)c2)oc2cc(O)cc(O)c12 [Isoquercetin],,7.5%
"COc1ccc(C(C)=O)c(O)c1O [2,3-Dihydroxy-4-methoxyacetophenone]",5.9%,
CCC1=C[C@@H]2CN3CCc4c([nH]c5ccccc45)[C@@](C(=O)OC)(C2)[C@@H]13 [Catharanthine],54.2%,
O[C@H]1[C@H](O)[C@@H](O)CN2CC[C@H](O)[C@H]12 [Castanospermine],47.4%,
OC[C@@H](O)[C@@H](O[C@H]1O[C@H](CO)[C@@H](O)[C@H](O)[C@H]1O)[C@H](O)[C@@H](O)CO [Maltitol],12%,
C=C1C[C@@]23CC[C@H]4[C@@](C)(CCC[C@@]4(C)C(=O)O[C@@H]4O[C@H](CO)[C@@H](O)[C@H](O)[C@H]4O)[C@@H]2CC[C@]1(O[C@@H]1O[C@H](C)[C@@H](O)[C@H](O)[C@@H]1O[C@@H]1O[C@H](CO)[C@@H](O)[C@H](O[C@@H]2O[C@H](CO)[C@@H](O)[C@H](O)[C@H]2O)[C@H]1O)C3 [Rebaudioside C],10.5%,
NC[C@H](O)c1ccc(O)c(O)c1 [Norepinephrine (hydrochloride)],7.6%,
COc1cc2c(cc1OC)[C@@H](Cc1ccc(O)c(Oc3cc4c(cc3OC)CCN(C)[C@@H]4Cc3ccc(O)cc3)c1)N(C)CC2 [Liensinine (perchlorate)],,8.8%
CC(C)=CCC[C@H](C)CC=O [(S)-(-)-Citronellal],6.7%,

# Reprinted from above, 2 compounds:
SMILES,229E Inhibition rate,"229E Inhibition rate (229E Inhibition rate, 24 h)"
COc1cc2c(cc1OC)C1=Cc3ccc(OC)c(OC)c3CN1CC2 [Dihydropalmatine],8.1%,
O=C(O)CO [Glycolic acid],18.6%,

# The list continues:

SMILES,229E Inhibition rate,"229E Inhibition rate (229E Inhibition rate, 24 h)"
CC(=O)O[C@@]12CO[C@@H]1C[C@H](O)[C@@]1(C)C(=O)[C@H](O)C3=C(C)[C@@H](OC(=O)[C@H](O)[C@@H](NC(=O)c4ccccc4)c4ccccc4)C[C@@](O)([C@@H](OC(=O)c4ccccc4)[C@H]21)C3(C)C [10-Deacetyltaxol],10.8%,
C[C@@H]1O[C@@H](Oc2cc(O)c3c(=O)c(O)c(-c4ccc(O)cc4)oc3c2O)[C@H](O)[C@H](O)[C@H]1O [Rhodionin],0%,
Cc1ccc(O)c(O)c1 [4-Methylcatechol],16.8%,
C=C[C@](C)(O)CC[C@H]1C(=C)CC[C@H]2C(C)(C)CCC[C@]12C [Manool],42.5%,
O=C(O)C(O)C(O)C(=O)O (centres unmarked) [Choline (bitartrate)],,7.4%
Nc1ccccc1S(=O)(=O)O [2-Aminobenzenesulfonic acid],0%,
COc1cc2ccc(=O)oc2c(O)c1O [Fraxetin],11.5%,
CC(=O)O[C@@]1(C)C[C@@H](O)[C@]2(O)C=CO[C@@H](O[C@@H]3O[C@H](CO)[C@@H](O)[C@H](O)[C@H]3O)[C@@H]21 [8-O-Acetylharpagide],0%,
O=C1c2ccccc2C(=O)c2c(O)c(O)cc(O)c21 [Purpurin],25.5%,
CCCOC(=O)c1ccc(O)cc1 [Propylparaben],42.3%,
Oc1cc(O)c2cc(O)c(-c3ccc(O)c(O)c3)[o+]c2c1 [Cyanidin (Chloride)],16.9%,
CCC1(c2ccc(O)cc2)NC(=O)N(C)C1=O (centres unmarked) [4-Hydroxymephenytoin],55.5%,
O=C(/C=C/c1ccc(O)c(O)c1)O[C@@H]1C[C@@](O)(C(=O)O)C[C@@H](O)[C@@H]1O [Neochlorogenic acid],24.2%,
CC(C)=CCc1cc([C@@H]2CC(=O)c3ccc(O)c(CC=C(C)C)c3O2)ccc1O [Glabrol],0%,
CNC(=O)c1cccnc1 [N-Methylnicotinamide],28.4%,
CC(C)=CCC[C@@](C)(O)[C@H]1CC[C@]2(C)[C@@H]1[C@H](O)C[C@@H]1[C@@]3(C)CC[C@H](O)C(C)(C)[C@@H]3[C@@H](O[C@@H]3O[C@H](CO)[C@@H](O)[C@H](O)[C@H]3O[C@@H]3O[C@@H](C)[C@H](O)[C@@H](O)[C@H]3O)C[C@]12C [20(R)-Ginsenoside Rg2],5.2%,
CC12CCC(C1)C(C)(C)C2O (centres unmarked) [Fenchyl alcohol],8.3%,
